Among the data in the supplement of paper PMC8616043 are Z-score values, retold here.

Each structure is given as a SMILES string. Structures can show the parent of a compound that is named as a salt. The list shows a part of the results. This data set is noisy: repeats of one test often differ as much as different tests do.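 The cells are human U-2 OS cells that stably carry a GFP sensor with a nuclear import signal and a classical export signal. They were transfected to make PR50, a 50-repeat proline–arginine dipeptide protein from the ALS/FTD gene C9ORF72. Each well's nuclear-minus-cytoplasm GFP signal was scaled from in-plate DMSO (low) to PR-only wells (high), then scored against the other test wells on the plate; compounds scoring well below zero were called hits that reverse the PR effect.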

The subject of the assay is U-2 OS NCT-C biosensor cells expressing PR50. In words: Z-score of normalised NCT-C biosensor translocation index in PR50-expressing cells; higher = more nuclear biosensor (more disrupted nuclear export). The settings on record: 3 µM; 24 h.
Consider `CC1(C)O[C@@H]2C[C@H]3[C@@H]4C[C@H](F)C5=CC(=O)C=C[C@]5(C)[C@H]4[C@@H](O)C[C@]3(C)[C@]2(C(=O)CO)O1` [Flunisolide], for which the Z-score was inactive: -0.106.

On to `Cc1c(-c2ccc(-c3ccccc3F)cc2)nc2ccc(F)cc2c1C(=O)O` [Brequinar sodium salt hydrate], for which the Z-score is inactive: 0.357.

Take `NC(=O)c1ccccc1` [Benzamide]: the Z-score is inactive: -0.327.

For the compound `COc1ccccc1CN[C@H]1CCCN[C@H]1c1ccccc1`, the Z-score is inactive: -0.491.

On to `NC(N)=NC(N)=Nc1ccccc1` [1-Phenylbiguanide], for which the Z-score was inactive: -0.697.

In the case of `NCCc1ccc(O)c(O)c1` [Dopamine hydrochloride], the Z-score was inactive: -0.316.

On to `NCCc1ccc(O)c(O)c1` [Dopamine·HCl], for which the Z-score was inactive: -0.368.

`CC(=O)SCC(=O)c1ccc(NS(=O)(=O)c2ccc(OCCCN(C)C)cc2)nc1`: the Z-score is inactive: -0.863.

`C[C@H](Cc1ccc(O)c(O)c1)[C@@H](C)Cc1ccc(O)c(O)c1`: the Z-score was inactive: 0.215.

`C[C@H](O)[C@H](O)[C@H]1CNc2nc(N)[nH]c(=O)c2N1` [(6R)-5,6,7,8-Tetrahydro-L-biopterin dihydrochloride]: the Z-score is inactive: -1.09.

In the case of `C[N+](C)(C)C[C@H](O)CC(=O)[O-]` [Levocarnitine], the Z-score was inactive: 0.61.

On to `Nc1ncnc2c1ncn2[C@@H]1O[C@@H]2COP(=O)(O)O[C@H]2[C@H]1O` [Adenosine 3',5'- cyclic monophosphate], for which the Z-score was inactive: 0.847.

As to `C[C@H]1[C@H]2CC[C@H]3[C@@H]4CC=C5C[C@@H](N(C)C)CC[C@]5(C)[C@H]4CC[C@]23CN1C` [Conessine], the Z-score is inactive: 0.0224.

For the compound `CC(C)C(=O)c1c(C(C)C)nn2ccccc12` [Ibudilast], the Z-score was inactive: 0.0283.

Regarding `C[N+](C)(C)CC(O)CC(=O)[O-]` (racemic) [(±)-Carnitine], the Z-score is inactive: 0.307.

On to `CC(CN(C)C)CN1c2ccccc2CCc2ccccc21` (stereo not given) [Trimipramine Maleate salt], for which the Z-score was inactive: -1.24.

Regarding `COC(=O)C(C)(N)Cc1ccc(O)cc1` (racemic) [alpha-Methyl-DL- tyrosine methyl ester HCl], the Z-score is inactive: -0.111.

Regarding `COC(=O)[C@H]1[C@H]2C[C@H]3c4[nH]c5ccccc5c4CCN3C[C@H]2CC[C@@H]1O` [Rauwolscine], the Z-score is inactive: -0.517.

Regarding `CN1[C@@H]2CC[C@H]1C[C@@H](OC(=O)C(O)c1ccccc1)C2` (mixture of isomers) [DL-Homatropine hydrobromide], the Z-score was inactive: -0.409.

For the compound `CN1[C@@H]2CC[C@H]1C[C@@H](OC(=O)C(O)c1ccccc1)C2` (stereo not given in full) [Homatropine·HBr], the Z-score is inactive: -0.286.

For `Cn1nnc2c(C(N)=O)ncn2c1=O` [Temozolomide], the Z-score is inactive: -0.121.

Consider `C=C1C(=O)O[C@H]2[C@H]1CC/C(C)=C/CC[C@@]1(C)O[C@@H]21` [Parthenolide], for which the Z-score is inactive: 0.285.

Take `O=C(O)COc1ccc(C(=O)c2cccs2)c(Cl)c1Cl` [Tienilic Acid]: the Z-score is inactive: 0.214.

For `COc1ccc(CCn2nnnc2C2(c3ccc(C)cc3)CC2)cc1` [Mephetyl tetrazole], the Z-score was inactive: 0.471.

`Nc1nc(N)c2nc(-c3ccccc3)c(N)nc2n1` [Triamterene]: the Z-score is inactive: -0.125.

On to `CC(C)(C)NC(=O)[C@H]1CC[C@H]2[C@@H]3CC[C@H]4NC(=O)C=C[C@]4(C)[C@H]3CC[C@]12C` [Finasteride], for which the Z-score was inactive: 0.461.

As for `C=CC[N+]1([C@H]2C[C@H]3[C@@H]4CC[C@H]5C[C@H](O)[C@@H](N6CCOCC6)C[C@]5(C)[C@H]4CC[C@]3(C)[C@H]2OC(C)=O)CCCC1` [Rocuronium Bromide], the Z-score is inactive: 0.446.

Regarding `Cc1ccc(C(=O)N(CCCN)[C@@H](c2oc3cc(Cl)ccc3c(=O)c2Cc2ccccc2)C(C)C)cc1`, the Z-score is inactive: 1.35.

Regarding `O=c1c(O)c(-c2ccc(O)cc2)oc2cc(O)cc(O)c12` [Kaempferol], the Z-score is inactive: -0.395.

Turning to `COc1cc2nc(N3CCN(C(=O)C4COc5ccccc5O4)CC3)nc(N)c2cc1OC` (stereo not given) [Doxazosin Mesylate], the Z-score was inactive: 0.275.

Take `COc1cc2nc(N3CCN(C(=O)C4COc5ccccc5O4)CC3)nc(N)c2cc1OC` (stereo not given) [Doxazosin mesylate]: the Z-score was inactive: -0.0874.

As to `N[C@H]1CONC1=O` [L-Cycloserine], the Z-score is inactive: 1.36.

`CCN(CC)CCOCCOC(=O)C1(c2ccccc2)CCCC1` [Carbetapentane citrate]: the Z-score is inactive: -0.293.

As for `C[C@@H]1C[C@H]2[C@@H]3CCC4=CC(=O)C=C[C@]4(C)[C@@]3(F)[C@@H](O)C[C@]2(C)[C@H]1C(=O)CO` [Desoximetasone], the Z-score is inactive: -0.342.

With `COc1ccc(Oc2c(Cl)cnn(C3c4ccccc4-c4ccccc43)c2=O)cc1`, the Z-score is inactive: 0.0717.

Consider `O=c1[nH]ccc2c(O)cccc12` [1,5-  Isoquinolinediol], for which the Z-score was inactive: 0.0717.

Turning to `Cc1cc(C(C)(C)C)cc(C)c1CC1=NCCN1` [Xylometazoline hydrochloride], the Z-score was inactive: -0.428.

`CCN(CC)C(=O)C1(c2ccccc2)CC1CN` (stereo not given) [Milnacipran·HCl]: the Z-score was inactive: -0.695.

As for `O=C(c1cc(O)c(O)c([N+](=O)[O-])c1)c1ccccc1F`, the Z-score is inactive: 1.03.

For `O=P(O)(O)C(O)(Cn1ccnc1)P(=O)(O)O` [Zoledronic acid monohydrate], the Z-score is inactive: -0.507.

For `O=P(O)(O)C(O)(Cn1ccnc1)P(=O)(O)O` [Zoledronic Acid Monohydrate], the Z-score is inactive: -1.2.

In the case of `Nc1nc2c(cnn2CCc2ccccc2)c2nc(-c3ccco3)nn12`, the Z-score is inactive: 0.167.

Consider `NC[C@H]1O[C@H](O[C@H]2[C@H](O)[C@@H](O[C@H]3O[C@H](CO)[C@@H](O)[C@H](N)[C@H]3O)[C@H](N)C[C@@H]2N)[C@H](N)C[C@@H]1O` [Tobramycin], for which the Z-score is inactive: -0.14.

Consider `Nc1cc2c(ncn2CCOCP(=O)(O)O)c(=O)[nH]1` [PMEG hydrate], for which the Z-score is inactive: 0.222.

For the compound `CC1(C)O[C@@H]2C[C@H]3[C@@H]4C[C@H](F)C5=CC(=O)C=C[C@]5(C)[C@@]4(F)[C@@H](O)C[C@]3(C)[C@]2(C(=O)CO)O1` [Fluocinolone Acetonide], the Z-score was inactive: 0.0611.

For the compound `CC(C)[C@H](N)C(=O)OCCOCn1cnc2c(=O)nc(N)[nH]c21` [Valacyclovir·HCl], the Z-score was inactive: 0.687.

With `CC(C)(O)[C@@H]1CC[C@](C)([C@H]2[C@@H](O)C[C@@]3(C)[C@@H]4C[C@H](O)[C@H]5C(C)(C)[C@@H](O)CC[C@@]56C[C@@]46CC[C@]23C)O1` [Cycloastragenol], the Z-score is inactive: 0.144.

Regarding `CN1CCN2c3ncccc3Cc3ccccc3C2C1` (stereo not given) [Mirtazapine], the Z-score is inactive: -0.0541.

Turning to `Cn1cc(C(F)(F)F)nc1-c1ccc(OCC(O)CNCCOc2ccc(O)c(C(N)=O)c2)cc1` (stereo not given), the Z-score was inactive: -1.62.

On to `C[C@@H]1C/C=C/C=C/C=C/C=C/[C@H](O[C@@H]2O[C@H](C)[C@@H](O)[C@H](N)[C@@H]2O)C[C@@H]2O[C@](O)(C[C@@H](O)C[C@H]3O[C@@H]3/C=C/C(=O)O1)C[C@H](O)[C@H]2C(=O)O` [Natamycin], for which the Z-score was inactive: -0.642.

In the case of `C[C@@H]1C/C=C/C=C/C=C/C=C/[C@H](O[C@@H]2O[C@H](C)[C@@H](O)[C@H](N)[C@@H]2O)C[C@@H]2O[C@](O)(C[C@@H](O)C[C@H]3O[C@@H]3/C=C/C(=O)O1)C[C@H](O)[C@H]2C(=O)O` [Pimaricin], the Z-score was inactive: -0.41.

Turning to `NC(C(=O)O)C(O)C(=O)O` (racemic) [DL-threo-beta- Hydroxyaspartic acid], the Z-score is inactive: -0.213.

Regarding `O=C(O)C1=CC(=C(c2ccc(O)c(C(=O)O)c2)c2ccc(O)c(C(=O)O)c2)C=CC1=O` [Aurintricarboxylic acid], the Z-score is inactive: -0.187.

`CC#C[C@]1(O)CC[C@H]2[C@@H]3CCC4=CC(=O)CCC4=C3[C@@H](c3ccc(N(C)C)cc3)C[C@@]21C` [Mifepristone]: the Z-score is inactive: 0.758.

Consider `Nc1c(O)cc(O)cc1C=Cc1ccc(O)cc1` [Aminoresveratrol sulfate], for which the Z-score was inactive: -1.89.

Regarding `COc1ccc(Cl)cc1C(=O)NCCc1ccc(S(=O)(=O)NC(=O)NC2CCCCC2)cc1` [Glybenclamide], the Z-score is inactive: -0.294.

Consider `COc1ccc(Cl)cc1C(=O)NCCc1ccc(S(=O)(=O)NC(=O)NC2CCCCC2)cc1` [Glyburide], for which the Z-score was inactive: -0.458.

As for `Nc1nc(=O)n([C@@H]2CS[C@H](CO)O2)cc1F` [Emtricitabine], the Z-score is inactive: 0.373.

On to `NC(N)=NCCCC(NC(=O)C(N)Cc1ccc(O)cc1)C(=O)O` (stereo not given) [Kyotorphin acetate salt], for which the Z-score is inactive: -0.0968.

On to `CCCOc1ccccc1-c1nc2[nH]nnc2c(=O)[nH]1` [Zaprinast], for which the Z-score is inactive: 0.0952.

For the compound `CCCCCCNC(=O)n1cc(F)c(=O)[nH]c1=O` [Carmofur], the Z-score is inactive: 0.0591.

On to `O=C(O)/C=C\C(=O)Nc1ccc(Oc2cccc(Oc3ccc(NC(=O)/C=C\C(=O)O)cc3)c2)cc1`, for which the Z-score is inactive: -0.596.

As to `COC(=O)C1=CO[C@@H](O)[C@@H]2C(CO)=CC[C@H]12` [Genipin], the Z-score is inactive: -0.401.

For the compound `COc1cc2c(NC3CCN(C(C)C)CC3)nc(N3CCC(F)(F)CC3)nc2cc1OCCCN1CCCC1`, the Z-score was active: -2.3.

For `O=C(O)CCC(C(=O)O)N1C(=O)c2ccccc2C1=O` [L-Glutamic acid, N- phthaloyl-], the Z-score is inactive: 1.5.
